The numbers were not newly measured in patent US20260384399A1, “INDAZOLE DERIVATIVES AS SEROTONERGIC AGENTS USEFUL FOR THE TREATMENT OF DISORDERS RELATED THERETO” (published 2026), which cites them from elsewhere.

Entries after “also recorded” stand apart in the source; their conditions may differ. Some entries of the source have several records that differ or are many. They are shown here; other results are not. An entry can have further records. Values given together differ for a reason that is not stated; some may be repeats, others may stem from another dose, organism or construct than stated.

The data set has as its system 5-HT2 receptor. Particulars: daily administration; cited from earlier work.

Regarding `CCN(CC)C(=O)[C@@H]1C=C2c3cccc4[nH]cc(c34)C[C@H]2N(C)C1`, the “5-HT2 receptor density in rat brain” value is on record as “selectively decreased 5-HT2 receptor density; also recorded: reduce 5-HT2 receptor density in rat brain”.
